The list shows a part of the results, in another mix than the full data. At the low end of the ranking the order means little.

By UniProt entry, the sequences of proteins in these tests, tags left out. Where a name states a change or a piece, a line headed by the entry shows the natural chain unless it says otherwise.
UniProt Q99607: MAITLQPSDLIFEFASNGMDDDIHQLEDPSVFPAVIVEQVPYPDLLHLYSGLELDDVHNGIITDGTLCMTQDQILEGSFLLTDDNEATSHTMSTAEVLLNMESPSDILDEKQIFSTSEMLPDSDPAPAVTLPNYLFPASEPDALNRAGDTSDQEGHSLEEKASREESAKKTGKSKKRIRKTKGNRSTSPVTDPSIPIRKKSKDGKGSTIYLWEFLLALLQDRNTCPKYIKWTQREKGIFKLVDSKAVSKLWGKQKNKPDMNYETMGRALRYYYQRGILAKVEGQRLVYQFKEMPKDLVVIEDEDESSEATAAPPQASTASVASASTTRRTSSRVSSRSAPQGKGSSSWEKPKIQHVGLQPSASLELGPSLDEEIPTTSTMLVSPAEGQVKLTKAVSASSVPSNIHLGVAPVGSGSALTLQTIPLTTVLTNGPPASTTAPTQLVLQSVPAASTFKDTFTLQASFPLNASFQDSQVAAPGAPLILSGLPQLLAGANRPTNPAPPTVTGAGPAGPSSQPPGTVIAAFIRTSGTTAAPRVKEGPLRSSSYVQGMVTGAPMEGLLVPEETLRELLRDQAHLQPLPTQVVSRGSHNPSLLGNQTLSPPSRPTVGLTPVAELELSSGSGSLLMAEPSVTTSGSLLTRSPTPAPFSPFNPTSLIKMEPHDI
UniProt Q01892: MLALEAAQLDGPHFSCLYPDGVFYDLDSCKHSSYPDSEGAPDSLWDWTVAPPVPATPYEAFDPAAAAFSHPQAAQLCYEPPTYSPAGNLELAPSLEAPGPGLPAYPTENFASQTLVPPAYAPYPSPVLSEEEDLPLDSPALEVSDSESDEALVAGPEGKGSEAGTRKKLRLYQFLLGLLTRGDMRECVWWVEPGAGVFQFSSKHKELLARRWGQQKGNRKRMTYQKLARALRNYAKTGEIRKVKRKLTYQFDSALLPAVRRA

Common to all, as to assay: DAPPL (digital affinity profiling via proximity ligation, sequencing)
Common to all, as to conditions: 10 mM Tris-HCl pH 7.5, 50 mM NaCl, 1 mM DTT, 4% glycerol, room temperature, 30 min; GST-TFs on glutathione beads, 16-mer random dsDNA library, 0.1% …; high values mean tight binding; double strand, one strand shown; scale: fold enrichment (6-mer frequency, TF over GST control)

One assay addresses ELF4 (UniProt Q99607).
The next assay addresses T1, ETV2 (UniProt O00321).
T1 sequence: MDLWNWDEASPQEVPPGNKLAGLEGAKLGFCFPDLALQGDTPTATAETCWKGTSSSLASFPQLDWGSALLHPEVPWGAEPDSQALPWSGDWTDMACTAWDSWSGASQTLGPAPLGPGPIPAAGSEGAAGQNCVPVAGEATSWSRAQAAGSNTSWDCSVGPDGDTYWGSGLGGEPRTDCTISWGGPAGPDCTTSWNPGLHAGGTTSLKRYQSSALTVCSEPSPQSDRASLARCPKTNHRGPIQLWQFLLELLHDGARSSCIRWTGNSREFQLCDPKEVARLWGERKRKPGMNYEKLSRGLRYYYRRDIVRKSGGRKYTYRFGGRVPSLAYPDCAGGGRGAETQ

A further assay concerns the target T2, ETV3L (UniProt Q6ZN32).
T2 sequence: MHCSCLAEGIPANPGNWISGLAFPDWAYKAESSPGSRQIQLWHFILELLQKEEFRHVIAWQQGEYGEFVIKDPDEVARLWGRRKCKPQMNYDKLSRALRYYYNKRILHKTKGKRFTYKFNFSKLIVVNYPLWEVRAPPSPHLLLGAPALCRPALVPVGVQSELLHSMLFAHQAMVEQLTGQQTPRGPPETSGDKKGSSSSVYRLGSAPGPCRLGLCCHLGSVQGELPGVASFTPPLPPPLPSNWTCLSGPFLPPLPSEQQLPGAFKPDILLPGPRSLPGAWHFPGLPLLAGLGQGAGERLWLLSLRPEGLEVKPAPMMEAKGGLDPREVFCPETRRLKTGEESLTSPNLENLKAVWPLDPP

The next assay has as its target SPIB (UniProt Q01892).
For the next assay, the target named is T3, EHF (UniProt Q9NZC4).
T3 sequence: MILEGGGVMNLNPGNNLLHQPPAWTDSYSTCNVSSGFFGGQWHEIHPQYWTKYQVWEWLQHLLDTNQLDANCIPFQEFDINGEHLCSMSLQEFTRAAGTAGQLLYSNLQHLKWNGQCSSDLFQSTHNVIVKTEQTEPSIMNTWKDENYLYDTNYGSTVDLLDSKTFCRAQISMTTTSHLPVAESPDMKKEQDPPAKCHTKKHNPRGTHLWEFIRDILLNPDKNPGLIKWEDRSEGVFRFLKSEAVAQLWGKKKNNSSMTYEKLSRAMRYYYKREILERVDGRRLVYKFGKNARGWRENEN

For AACCGC, the binding signal was 1.12 with ELF4, 1.12 in the assay with ETV2 and 1.08 in the assay with ETV3L.

As for ATAGCG, the binding signal with SPIB was determined as 0.916; with ELF4, 0.964; in the assay with ETV2, 0.969; with ETV3L, 0.956.

TTCGGT: the binding signal with ELF4 was 1.17; with ETV2, 1.13; with ETV3L, 1.11.

For the sequence GTCCCA, the binding signal with SPIB turned out to be 1.06; with ELF4 it was 1.13; in the assay with ETV2 it was 0.995; with ETV3L, 1.13.

Take AAGCGC: the binding signal with ELF4 was found to be 1.12; with ETV2, 0.969; with ETV3L it was 1.13.

As to TCAAGC, the binding signal in the assay with SPIB is 0.994; with ELF4, 0.986; in the assay with ETV2, 1.09; in the assay with ETV3L, 1.08.

Turning to GTAATG, the binding signal with EHF stood at 1.12; in the assay with SPIB, 1.06; in the assay with ELF4 it was 1.08; with ETV2, 1.04.

For CTATCG, the binding signal worked out at 1.07 with EHF, 1.15 with ELF4, 0.974 with ETV2 and 1.07 with ETV3L.

Turning to GTAGTT, the binding signal with SPIB was 0.988; with ELF4, 0.935; in the assay with ETV2, 1.04; with ETV3L, 1.01.

In the case of CATCGC, the binding signal with EHF is 0.976; with ELF4 it was 1.13; in the assay with ETV2, 0.97.

CCTTGT: the binding signal is 1.29 with ELF4 and 1.03 with ETV2.

With GATATG, the binding signal with SPIB is 0.996; with ELF4, 1.11; in the assay with ETV2 it was 0.938; with ETV3L, 1.08.

In the case of GTTATA, the binding signal came to 0.958 with EHF, 0.977 with ELF4, 0.972 with ETV2 and 1.06 in the assay with ETV3L.

As for ACGGTA, the binding signal with EHF is 0.979; with SPIB, 0.987; with ELF4, 0.969; with ETV2, 1.03; in the assay with ETV3L, 0.947.

TGACGG: the binding signal with EHF is 0.932; with SPIB, 0.994; with ELF4, 0.907; in the assay with ETV2, 0.966; in the assay with ETV3L, 0.893.

On to TGTTCG, for which the binding signal in the assay with EHF turned out to be 1.2; with ELF4 it was 0.976; in the assay with ETV2 it was 0.915; with ETV3L it was 1.01.

For CGATCA, the binding signal is 0.956 in the assay with EHF, 1.06 with ELF4 and 0.995 with ETV2.

With TTCACG, the binding signal with ELF4 stood at 1.46; with ETV2, 1.34.

In the case of GAACTA, the binding signal stood at 1.21 in the assay with ELF4, 1.31 in the assay with ETV2 and 1.27 in the assay with ETV3L.

CACTAC: the results for the binding signal with EHF, with ELF4 and with ETV2 were 1.28, 1.27 and 1.34, respectively.

ACCACA: the binding signal was determined as 1.11 with ELF4 and 0.996 with ETV2.

Take CTCTAT: the binding signal turned out to be 1.09 in the assay with EHF, 1.18 in the assay with ELF4 and 1.21 with ETV2.

Regarding GCAAAC, the binding signal was determined as 0.99 in the assay with EHF, 0.988 in the assay with SPIB, 1.06 with ELF4 and 0.937 with ETV2.

TCGCCG: the binding signal with SPIB was found to be 1.16; with ELF4 it was 1.21; in the assay with ETV3L, 1.25.

On to TTATCT, for which the binding signal was found to be 1.25 with ELF4 and 1.44 in the assay with ETV3L.

Consider CTCATC, for which the binding signal in the assay with ELF4 came to 1.35; with ETV3L, 1.5.

Take GCTAAC: the binding signal worked out at 0.989 with SPIB, 0.971 with ELF4 and 0.99 with ETV3L.

Source of the values: PMC7862700.
